# Several values for one entry are separate records, joined by “and”; a condition that tells them apart may be missing. Equal values may be shown once. Inconclusive means that the source gave no clear call. Such entries were picked first, then a sample of the others. A potency beside an inconclusive call is a rough fit, not a confirmed value. Some compounds were tested as several samples or in several runs, with calls that do not always agree. Activity calls are given as the source filed them. The calls were made as follows: active = hit-call score of the fitted dose curve at least 0.9, where 1 is the maximum; inconclusive = response in the unintended direction; inactive = score below 0.9.
# Chains of the proteins cited; added tags and fusions are not shown.
# UniProt P04637, whole entry, looked up: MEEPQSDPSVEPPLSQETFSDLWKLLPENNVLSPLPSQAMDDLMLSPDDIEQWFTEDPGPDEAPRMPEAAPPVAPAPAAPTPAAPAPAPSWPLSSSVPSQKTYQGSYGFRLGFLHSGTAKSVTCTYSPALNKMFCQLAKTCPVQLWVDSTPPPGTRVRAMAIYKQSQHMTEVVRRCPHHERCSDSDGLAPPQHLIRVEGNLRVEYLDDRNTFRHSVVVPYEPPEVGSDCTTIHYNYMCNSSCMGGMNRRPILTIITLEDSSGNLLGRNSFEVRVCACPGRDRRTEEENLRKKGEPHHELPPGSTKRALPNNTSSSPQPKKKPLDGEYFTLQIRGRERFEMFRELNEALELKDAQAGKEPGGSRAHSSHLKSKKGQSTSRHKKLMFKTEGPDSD
# Key:
# [1] = TOX21_p53_BLA_p4_viability: Viability Assessment in the Tox21 HCT-116 p53 Agonism Beta-lactamase Assay, Phase 4 (AID 2283597);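 also: hits lower the luminescence signal meaning cytotoxicity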
# Outline: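 Cytotoxicity as reduced cellular ATP (CellTiter-Glo luminescence, 30 min room temperature), measured in the same wells following the CCF4 FRET p53 reading. Human HCT-116 cells received compounds in DMSO (217-fold dilution) for 16 h.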
# [2] = biological target: Cellular tumor antigen p53 (Homo sapiens) (UniProt P04637); test: TOX21_p53_BLA_p5_ratio: Tox21 HCT-116 p53 Agonism Beta-lactamase Assay, Ratio, Phase 5 (AID 2283599)
# Outline: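 HCT-116 p53-bla cells (4000/well) plated 5 h, dosed with compound (217-fold DMSO dilution) for 16 h at 37 C; CCF4-AM substrate 2 h at room temperature. Activity is the 460/530 nm emission ratio (405 nm excitation), fitted in gain-of-signal direction versus DMSO.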
# [3] = TOX21_p53_BLA_p5_viability: Viability Assessment in the Tox21 HCT-116 p53 Agonism Beta-lactamase Assay, Phase 5 (AID 2283600)
# Outline: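 Viability came from CellTiter-Glo ATP luminescence, read after 30 min at room temperature. Before this, HCT-116 p53-bla cells (4000/well) had 16 hours of compound exposure at 37C, with DMSO stocks diluted 217-fold on transfer.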
# [4] = biological target: Cellular tumor antigen p53 (Homo sapiens) (UniProt P04637); test: TOX21_p53_BLA_p4_ratio: Tox21 HCT-116 p53 Agonism Beta-lactamase Assay, Ratio, Phase 4 (AID 2283601)
# Outline: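 HCT-116 p53 beta-lactamase reporter cells (4000/well) preincubated 5 h, then compound (217-fold dilution of DMSO stock) for 16 h at 37C. CCF4-AM substrate added 2 h at room temperature; 460/530 nm emission ratio fitted upward versus DMSO.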
# [5] = Tanguay_ZF_120hpf_OTIC_legacy: (Legacy) Oregon State University Tanguay Lab 120 Hour Post-fertilization zebrafish Assay for Otic Vesicle Malformation (AID 2283639)
# Outline: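 Wild-type zebrafish larvae, whole-embryo exposure from early stage to 120 hpf at 28C. Binary brightfield scoring of otic vesicle morphology, fitted in the positive direction against the DMSO baseline.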
# [6] = Tanguay_ZF_120hpf_AXIS_legacy: (Legacy) Oregon State University Tanguay Lab 120 Hour Post-fertilization zebrafish Assay for Body Axis Malformation (AID 2283635);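 also: potency for an increased fraction of larvae scored with body axis malformation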
# Outline: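 Binary scoring of axis defects at 120 hpf under brightfield, fitted positive versus DMSO. Tropical 5D embryos, chorion removed by pronase at 4 hpf, were singly exposed in sealed, dark plates at 28C from 6 hpf; DMSO 0.64% final.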
structure (smiles),measurement,setting,value
CCOCC(=O)O,AC50,[1],inconclusive: 4.39 µM
same,AC50,[2],inconclusive: 46.1 µM
same,outcome,[2],inactive
same,AC50,[3],inconclusive: 47 µM
same,AC50,[4],inconclusive: 46.1 µM and inconclusive: 47 µM
O=C(OCc1ccccc1)C(=O)OCc1ccccc1,AC50,[1],inconclusive: 46.1 µM
same,outcome,[2],inactive
same,AC50,[3],inconclusive: 46.1 µM
CN1C(=O)CC[C@H]1c1cccnc1,AC50,[1],inconclusive: 44.7 µM and inconclusive: 23 µM
same,AC50,[2],inconclusive: 44.7 µM and inconclusive: 23 µM
same,AC50,[3],inconclusive: 44.7 µM
same,outcome,[3],inactive
same,AC50,[4],inconclusive: 44.7 µM
same,AC50,[5],inconclusive: 0.0114 µM
OCCc1ccccn1,AC50,[1],inconclusive: 46.1 µM
same,AC50,[2],inconclusive: 46.1 µM
same,outcome,[3],inactive
O=C(OC[C@H]1O[C@@H](OC(=O)c2cc(O)c(O)c(OC(=O)c3cc(O)c(O)c(O)c3)c2)[C@H](OC(=O)c2cc(O)c(O)c(OC(=O)c3cc(O)c(O)c(O)c3)c2)[C@@H](OC(=O)c2cc(O)c(O)c(OC(=O)c3cc(O)c(O)c(O)c3)c2)[C@@H]1OC(=O)c1cc(O)c(O)c(OC(=O)c2cc(O)c(O)c(O)c2)c1)c1cc(O)c(O)c(OC(=O)c2cc(O)c(O)c(O)c2)c1,AC50,[1],active: 14.1 µM and active: 3.93 µM
same,AC50,[2],active: 17 µM and active: 10.6 µM
same,AC50,[3],active: 6.49 µM
same,outcome,[3],inactive
same,AC50,[4],active: 7.98 µM and active: 3.2 µM
O=C[C@@H](O)[C@H](O)[C@H](O)CO,AC50,[1],inconclusive: 46.1 µM
same,AC50,[2],inconclusive: 46.1 µM
same,outcome,[3],inactive
NC(=O)OCC(COC(N)=O)c1ccccc1,AC50,[1],inconclusive: 9.14 µM and inconclusive: 23 µM
same,AC50,[2],inconclusive: 46.1 µM
same,AC50,[3],inconclusive: 46.1 µM
Oc1ccccc1Cc1ccccc1O,outcome,[1],inactive
same,AC50,[2],inconclusive: 46.1 µM
same,AC50,[3],inconclusive: 46.1 µM
C[C@H]1C[C@H]2[C@@H]3CCC4=CC(=O)C=C[C@]4(C)[C@@]3(F)[C@@H](O)C[C@]2(C)[C@@]1(O)C(=O)CO,AC50,[1],inconclusive: 23 µM
same,AC50,[2],inconclusive: 46.1 µM and inconclusive: 23 µM
same,AC50,[3],inconclusive: 17.8 µM
same,outcome,[3],inactive
same,AC50,[4],inconclusive: 39.9 µM
CCCN[C@H]1CCc2nc(N)sc2C1,AC50,[1],inconclusive: 1.01 µM
same,AC50,[2],inconclusive: 23 µM
same,AC50,[3],inconclusive: 23 µM
CC(C)Nc1nc(N)nc(Cl)n1,AC50,[1],inconclusive: 46 µM
same,AC50,[2],inconclusive: 46 µM
same,AC50,[3],inconclusive: 46 µM
CC(C)OP(=O)(CP(=O)(OC(C)C)OC(C)C)OC(C)C,AC50,[1],inconclusive: 75.9 µM
same,outcome,[2],inactive
same,AC50,[3],inconclusive: 0.02 µM
CC(C)(C)c1cccc(C(C)(C)C)c1O,outcome,[1],inactive
same,outcome,[2],inactive
same,AC50,[3],inconclusive: 8.97 µM
same,outcome,[3],inactive
same,AC50,[4],inconclusive: 45.2 µM
same,AC50,[6],inconclusive: 14.8 µM
NC1CCCCC1N (centres undefined),AC50,[1],inconclusive: 46.5 µM
same,AC50,[2],inconclusive: 46.1 µM
same,AC50,[3],inconclusive: 46.1 µM
same,outcome,[3],inactive
CCCCCCCCCCC1CO1 (centres undefined),AC50,[1],inconclusive: 46.1 µM
same,AC50,[2],inconclusive: 46.1 µM
same,AC50,[3],inconclusive: 46.1 µM
same,outcome,[4],inactive
CCCCC(CC)COCCO (centres undefined),AC50,[1],inconclusive: 0.662 µM
same,outcome,[2],inactive
same,AC50,[3],inconclusive: 46.1 µM
NCCCN1CCN(CCCN)CC1,outcome,[1],inactive
same,outcome,[2],inactive
same,AC50,[3],inconclusive: 2.94 µM
CCOc1cccc(-n2cc(C(=O)N3CCN(c4cc(C(=O)O)c5ccccc5c4)CC3)nc2-c2ccc(C)cc2)c1,AC50,[1],active: 13.3 µM
same,AC50,[2],active: 58.1 µM
same,AC50,[3],active: 36.4 µM
same,AC50,[4],active: 24.1 µM
CCCCCCCCCCCCN1CCCC1=O,outcome,[1],inactive
same,AC50,[2],active: 63.2 µM
same,AC50,[3],active: 45.3 µM
Nc1cc(Cl)c(-c2cc(Cl)c(N)cc2Cl)cc1Cl,AC50,[1],active: 40.7 µM and active: 29.6 µM
same,AC50,[2],active: 85.2 µM and active: 85.6 µM
same,AC50,[3],active: 71.8 µM and active: 61.9 µM
same,AC50,[4],active: 81.8 µM and active: 57.1 µM
Cc1ccc(Cl)cc1,AC50,[1],inconclusive: 46.1 µM
same,AC50,[2],inconclusive: 46.1 µM
same,AC50,[3],inconclusive: 0.00397 µM
same,AC50,[4],inconclusive: 46.1 µM
O=C1c2c(O)cccc2Cc2cccc(O)c21,AC50,[1],inconclusive: 15.5 µM and inconclusive: 23 µM
same,AC50,[2],inconclusive: 46.1 µM
same,AC50,[3],inconclusive: 6.78 nM and inconclusive: 40.5 µM
same,outcome,[3],inactive
same,AC50,[4],inconclusive: 46.1 µM
same,outcome,[4],inactive
same,outcome,[5],inactive
C[C@]12CC[C@@H]3c4ccc(O)cc4CC[C@H]3[C@@H]1CC[C@@H]2OC(=O)CCC1CCCC1,AC50,[1],inconclusive: 23 µM
same,AC50,[2],inconclusive: 46.1 µM and inconclusive: 23 µM
same,AC50,[3],inconclusive: 4.57 µM
C=COCCOCCOC=C,outcome,[1],inactive
same,AC50,[2],inconclusive: 73 µM
same,AC50,[3],inconclusive: 46.1 µM
C=C(C)C(=O)OCCC(C)OC(=O)C(=C)C (centres undefined),outcome,[1],inactive
same,outcome,[2],inactive
same,AC50,[3],inconclusive: 46.1 µM
CC(C)(C)CC(C)(C)c1ccc(OCCOCC[N+](C)(C)Cc2ccccc2)cc1,AC50,[1],active: 33.7 µM and active: 23 µM
same,AC50,[2],active: 79.3 µM and active: 36.8 µM
same,AC50,[3],active: 73.6 µM
same,outcome,[3],inactive
same,AC50,[4],active: 70.9 µM and active: 42.1 µM
CCC1(c2ccccc2)C(=O)NCNC1=O,AC50,[1],inconclusive: 77.5 µM and inconclusive: 4.57 µM
same,AC50,[2],inconclusive: 46.1 µM and inconclusive: 47 µM and inconclusive: 23 µM
same,AC50,[3],inconclusive: 46.1 µM
same,outcome,[3],inactive
CC(=O)C1C(=O)C=C(C)OC1=O (centres undefined),AC50,[1],inconclusive: 46.1 µM
same,outcome,[2],inactive
same,AC50,[3],inconclusive: 46.1 µM
CNCCCC12CCC(c3ccccc31)c1ccccc12,AC50,[1],active: 62.7 µM and active: 36.6 µM
same,AC50,[2],active: 90.1 µM
same,AC50,[3],active: 70.2 µM
same,AC50,[4],active: 87 µM
CC(C)(C)c1ccc(O)c(C(C)(C)C)c1,AC50,[1],active: 42.7 µM
same,AC50,[2],active: 57.1 µM and active: 60.2 µM
same,AC50,[3],active: 42.7 µM
same,outcome,[3],inactive
same,AC50,[4],active: 72.4 µM
CCCCCCCCCCCC(=O)NCCCN(C)C,AC50,[1],active: 29 µM
same,AC50,[2],active: 86 µM
same,AC50,[3],active: 65.7 µM
same,AC50,[4],active: 59.8 µM
CC(C)CC(C)CC(O)CC(C)C (centres undefined),outcome,[1],inactive
same,outcome,[2],inactive
same,AC50,[3],inconclusive: 47.1 µM
same,outcome,[3],inactive
same,AC50,[4],inconclusive: 46.1 µM
CCCCCCCCCCCCN,AC50,[1],inconclusive: 42.4 µM and inconclusive: 46.4 µM and active: 62.2 µM
same,AC50,[2],inconclusive: 46.4 µM and active: 83.1 µM
same,AC50,[3],active: 84.5 µM
same,outcome,[3],inactive
same,AC50,[4],active: 86.1 µM
CCCCCCCCCCC,AC50,[1],inconclusive: 9.14 µM
same,AC50,[2],inconclusive: 46.1 µM
same,AC50,[3],inconclusive: 9.14 µM
CC(CN1c2ccccc2Sc2ccccc21)N(C)C (centres undefined),AC50,[1],inconclusive: 607 nM and inconclusive: 647 nM and inconclusive: 3.3 µM
same,AC50,[2],active: 43.5 µM
same,AC50,[3],inconclusive: 205 nM and inconclusive: 138 nM and active: 39.8 µM
CC(C)(Oc1ccc(Cl)cc1)C(=O)O,AC50,[1],inconclusive: 46.1 µM and inconclusive: 0.0133 nM
same,AC50,[2],inconclusive: 23 µM
same,AC50,[3],inconclusive: 23 µM
same,outcome,[3],inactive
same,outcome,[4],inactive
COC(=O)c1ccc2cc(C(=O)OC)ccc2c1,outcome,[1],inactive
same,outcome,[2],inactive
same,outcome,[3],inactive
c1ccc2cc3ccccc3cc2c1,AC50,[1],inconclusive: 47.3 µM
same,outcome,[2],inactive
same,AC50,[3],inconclusive: 47.3 µM
same,outcome,[3],inactive
same,AC50,[4],inconclusive: 47.3 µM
COCCOCCOCCO,AC50,[1],inconclusive: 796 nM and inconclusive: 47 µM
same,AC50,[2],inconclusive: 47 µM
same,outcome,[3],inactive
same,AC50,[4],inconclusive: 47 µM
CNC(=C[N+](=O)[O-])NCCSCc1ccc(CN(C)C)o1,outcome,[1],inactive
same,AC50,[2],inconclusive: 46.1 µM and inconclusive: 23 µM
same,AC50,[3],inconclusive: 23 µM
Cc1ncc([N+](=O)[O-])n1C,AC50,[1],inconclusive: 45.5 µM
same,AC50,[2],inconclusive: 46.1 µM and inconclusive: 45.5 µM
same,AC50,[3],inconclusive: 46.1 µM
same,AC50,[4],inconclusive: 46.1 µM
CCCCCCCC/C=C\CCCCCCCC(=O)N(C)CC(=O)O,AC50,[1],active: 83.3 µM
same,AC50,[2],active: 79.6 µM
same,AC50,[3],active: 43.7 µM
same,AC50,[4],active: 83.7 µM

# A run of entries from further up, as a working copy:
structure (smiles),measurement,setting,value
NC(=O)OCC(COC(N)=O)c1ccccc1,AC50,[3],inconclusive: 46.1 µM
Oc1ccccc1Cc1ccccc1O,outcome,[1],inactive
same,AC50,[2],inconclusive: 46.1 µM
same,AC50,[3],inconclusive: 46.1 µM
C[C@H]1C[C@H]2[C@@H]3CCC4=CC(=O)C=C[C@]4(C)[C@@]3(F)[C@@H](O)C[C@]2(C)[C@@]1(O)C(=O)CO,AC50,[1],inconclusive: 23 µM
same,AC50,[2],inconclusive: 46.1 µM and inconclusive: 23 µM
same,AC50,[3],inconclusive: 17.8 µM
same,outcome,[3],inactive
same,AC50,[4],inconclusive: 39.9 µM
CCCN[C@H]1CCc2nc(N)sc2C1,AC50,[1],inconclusive: 1.01 µM
same,AC50,[2],inconclusive: 23 µM
same,AC50,[3],inconclusive: 23 µM
CC(C)Nc1nc(N)nc(Cl)n1,AC50,[1],inconclusive: 46 µM
same,AC50,[2],inconclusive: 46 µM
same,AC50,[3],inconclusive: 46 µM
CC(C)OP(=O)(CP(=O)(OC(C)C)OC(C)C)OC(C)C,AC50,[1],inconclusive: 75.9 µM
same,outcome,[2],inactive
same,AC50,[3],inconclusive: 0.02 µM
CC(C)(C)c1cccc(C(C)(C)C)c1O,outcome,[1],inactive
same,outcome,[2],inactive
same,AC50,[3],inconclusive: 8.97 µM
same,outcome,[3],inactive
same,AC50,[4],inconclusive: 45.2 µM
same,AC50,[6],inconclusive: 14.8 µM
NC1CCCCC1N (centres undefined),AC50,[1],inconclusive: 46.5 µM
same,AC50,[2],inconclusive: 46.1 µM
same,AC50,[3],inconclusive: 46.1 µM
same,outcome,[3],inactive
CCCCCCCCCCC1CO1 (centres undefined),AC50,[1],inconclusive: 46.1 µM
same,AC50,[2],inconclusive: 46.1 µM
same,AC50,[3],inconclusive: 46.1 µM
same,outcome,[4],inactive
CCCCC(CC)COCCO (centres undefined),AC50,[1],inconclusive: 0.662 µM
